In publication PMC11310345 one finds binding data, which are given here for one molecule.

No constants are given. Whether binding was seen depends on the method and setting. Binding seen in cells or lysates may run through a third protein. Here binding means that the protein was enriched with, or labelled near, the bait; the list need not be complete. Where a sequence is shown, tags or fusion partners need not be part of it.

The target in the experiment is T1, RIMKLA containing 6×His-tag, overexpressed from adenovirus (Ad-RIMKLA) (UniProt Q6PFX8).
T1 sequence: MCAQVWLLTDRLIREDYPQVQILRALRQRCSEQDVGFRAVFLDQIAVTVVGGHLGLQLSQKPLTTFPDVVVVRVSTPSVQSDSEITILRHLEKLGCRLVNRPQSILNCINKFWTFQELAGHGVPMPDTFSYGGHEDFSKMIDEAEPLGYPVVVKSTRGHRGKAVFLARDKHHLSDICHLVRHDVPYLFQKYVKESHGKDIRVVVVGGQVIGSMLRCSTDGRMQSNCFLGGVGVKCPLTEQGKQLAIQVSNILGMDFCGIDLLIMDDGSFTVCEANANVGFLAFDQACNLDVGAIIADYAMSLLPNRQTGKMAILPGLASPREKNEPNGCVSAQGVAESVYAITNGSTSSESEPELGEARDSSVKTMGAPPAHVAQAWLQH
Description: affinity purification with mass spectrometry; mouse hepatocytes infected with Ad-RIMKLA (6×His) for 24 h; lysate precipitated with IgG or anti-His antibodies; PAGE, silver staining, indicated bands analysed by MS.

B1: betaine-homocysteine S-methyltransferase 1 (BHMT1), endogenous (enzyme, UniProt O35490 1-407)
chain: MAPVAGKKAKKGILERLNAGEVVIGDGGFVFALEKRGYVKAGPWTPEAAVEHPEAVRQLHREFLRAGSNVMQTFTFYASEDKLENRGNYVAEKISGQKVNEAACDIARQVADEGDALVAGGVSQTPSYLSCKSEVEVKKIFRQQLEVFMKKNVDFLIAEYFEHVEEAVWAVEALKASGKPVAATMCIGPEGDLHGVPPGECAVRLVKAGASIVGVNCHFDPSVSLQTVKLMKEGLEAARLKAYLMSQPLAYHTPDCGKQGFIDLPEFPFGLEPRVATRWDIQKYAREAYNLGVRYIGGCCGFEPYHIRAIAEELAPERGFLPPASEKHGSWGSGLDMHTKPWIRARARKEYWQNLRIASGRPYNPSMSRPDAWGVTKGAAELMQQKEATTEQQLRELFEKQKFKSAQ
B1: the binding result is “binds”.
